# Source: the supplement of paper PMC7125110
# ± gives the standard error. The uncertainty is large for many entries.
# B1: glmS ribozyme (parent)
# chain: AUAAAAGCGCCAGAACUACAGAAAUGUAGUUGACGAGGAGGAGGUUUAUCGAAUUUUCGGCGGAUGCCUCCAAA
# Variants of: B1
# Test: kcat; higher = faster cleavage; RNA array
# Details: with glucosamine-6-phosphate
# Outline: (§1)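 kobs was derived by fitting per-tile medians to one- or two-exponential decays after normalising signals to baseline and to non-cleaving reference variants. Those signals came from barcoded ribozyme variants transcribed in situ by E. coli RNA polymerase on sequenced MiSeq chips, followed through a hybridised Cy3 probe at 37 °C and imaged over ~14 h. Glucosamine-6-phosphate (40 μM to 10 mM) in HEPES/KCl/Mg(OAc)2 buffer was flowed in. Weighted Michaelis–Menten fits across concentrations then gave kcat and KM.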
row,Variant,kcat [s⁻¹]
1,G43C G63A,< 1e-05
2,G43U C67G,0.00171 ± 0.00015
3,G43U C68A,0.0321 ± 0.026
4,G43U U47A U55C,4.32e-05 ± 2.6e-05
5,G44C C67U,0.00192 ± 0.00015
6,G44C U46C,4.04e-05 ± 2.5e-05
7,G44U,0.000429 ± 5.3e-05
8,U45A U55A A64G,0.00688 ± 0.0036
9,U45C U46G,0.00122 ± 0.00043
10,U45G U47G,0.00796 ± 0.0073
11,U45G U65G G66U U69C,0.00339 ± 0.0019
12,U46C C68A,5.05e-05 ± 3e-05
13,U46C C71A,0.000545 ± 4.7e-05
14,U46G C70U,0.0041 ± 0.0022
15,U46G G51U U56G U69G,3.25e-05 ± 3.2e-05
16,U46G U56A,0.0015 ± 0.00084
17,U46G U65G,0.00226 ± 0.00027
18,U47A A48C,0.000714 ± 0.00042
19,U47A C50U,9.64e-05 ± 5.7e-05
20,U47A G51U,1.3e-05 ± 8.1e-06
21,U47A U56A,0.022 ± 0.021
22,U47A U56C,0.00368 ± 0.00095
23,U47C A53G,0.00605 ± 0.0032
24,U47C U65G,0.00435 ± 0.0005
25,U47G A52U,0.000286 ± 1.4e-05
26,U47G A64G C70G,3.26e-05 ± 9.4e-06
27,U47G C50A,3.95e-05 ± 3.5e-05

row,Variant,kcat [s⁻¹]
1,U47G C68U,0.00101 ± 0.00051
2,U47G C71U,0.00207 ± 0.001
3,U47G U54C,0.0127 ± 0.0066
4,A48G C67A,7.17e-05 ± 2.1e-06
5,A48G C68A,1.35e-05 ± 5e-06
6,A48G C68G,5.98e-05 ± 7.3e-06
7,A48G G51U,< 1e-05
8,U49A G59U,1.28e-05 ± 4.5e-06
9,U49G C50G G63C U69C,4.82e-05 ± 4.1e-05
10,U49G C68G U69G,3.29e-05 ± 1.9e-05
11,U49G U55A,0.00113 ± 0.0001
12,C50G G59U,4.3e-05 ± 3e-05
13,C50G U57A C58G,9.39e-05 ± 6.3e-05
14,C50U C67A,3.06e-05 ± 1.8e-05
15,C50U C70U C71A,4.37e-05 ± 3.6e-05
16,C50U U54C,4.13e-05 ± 2.1e-05
17,C50U U65G,< 1e-05
18,G51A C61G,< 1e-05
19,G51A C71A,1.9e-05 ± 9e-07
20,G51A G62C U65C,1.12e-05 ± 8.3e-06
21,G51U C67A,1.18e-05 ± 6.7e-06
22,A52G,0.00319 ± 0.00046
23,A52G U56G,0.00246 ± 0.0016
24,A52G U57G,0.00809 ± 0.0069
25,A52U C70U,0.00063 ± 0.0001
26,A53C G59U,< 1e-05
27,A53C G66C,0.000476 ± 8.1e-05

# Reprinted at random: 2 records from the list.
row,Variant,kcat [s⁻¹]
4,A48G C67A,7.17e-05 ± 2.1e-06
12,C50G G59U,4.3e-05 ± 3e-05

# Next results follow.

row,Variant,kcat [s⁻¹]
1,A53G C68U,0.00472 ± 0.0034
2,A53G G66A,0.0293 ± 0.014
3,A53G U57C,0.00102 ± 0.00075
4,A53G U69C,0.00315 ± 0.0025
5,A53U C67U,0.00202 ± 0.0012
6,A53U C68U,0.00696 ± 0.0048
7,A53U G66A,0.0162 ± 0.0055
8,A53U U56G,0.00834 ± 0.0061
9,U54A C67A,0.00303 ± 0.0028
10,U54A U65A,0.00834 ± 0.0013
11,U54C C70U,0.00794 ± 0.0014
12,U54C C71U,0.00647 ± 0.0042
13,U54C U55G,0.0129 ± 0.0076
14,U54G C67A,0.00581 ± 0.0044
15,U54G U56A,0.0949 ± 0.071
16,U55A C67U,0.0203 ± 0.011
17,U55A U56C,0.017 ± 0.012
18,U55A U56G,0.0146 ± 0.0083
19,U55A U57G,0.000181 ± 0.0001
20,U55A U69A,9.24e-05 ± 1e-05
21,U55G,0.0523 ± 0.0043
22,U55G C67U,0.00117 ± 0.00068
23,U55G C68U,0.000455 ± 0.00026
24,U55G C70A,0.000145 ± 2.6e-05
25,U55G U69G,7.83e-05 ± 1.5e-05
26,U56A C67U,0.00186 ± 0.0011
27,U56A C70U,0.0154 ± 0.013

row,Variant,kcat [s⁻¹]
1,U56G C71U,0.00545 ± 0.0029
2,U56G U57A,0.000613 ± 0.00046
3,U56G U57G,< 1e-05
4,U57C G62A C67U C68G,1.22e-05 ± 7.5e-06
5,U57G C67G,3e-05 ± 1.6e-05
6,U57G C71U,6.07e-05 ± 3e-05
7,C58A U69A,5.48e-05 ± 2.9e-05
8,C58G C68A,3.28e-05 ± 2.5e-05
9,G59C C68G,2.78e-05 ± 1e-05
10,G59U U69C,3.57e-05 ± 2.8e-05
11,G60A C67A,1.38e-05 ± 8.1e-06
12,C61G A64C,1.15e-05 ± 5.8e-06
13,C61G C68G,2.26e-05 ± 1.5e-05
14,C61G C70G C71G,5.21e-05 ± 2.7e-05
15,C61G U69C C70G,5.75e-05 ± 1.9e-05
16,C61U U69A,4.43e-05 ± 1.5e-05
17,G62A C71G,1.44e-05 ± 2.8e-06
18,G63C U69G,3.25e-05 ± 1.9e-05
19,A64U U69C,5.01e-05 ± 2.7e-06
20,U65G C67A,0.00816 ± 0.0055
21,G66A C70A,0.000648 ± 0.00034
22,C68U U69C,8.69e-05 ± 6.8e-06
23,U69G,0.000255 ± 0.00017
24,A72C,0.00605 ± 0.0029

# Variants of: B1
# Test: KM; higher = weaker cofactor use; RNA array
# Details: with glucosamine-6-phosphate
# Outline: as §1
row,Variant,KM [µM]
1,G43U C67G,1020 ± 150
2,G43U U47A U55C,13900 ± 14000
3,G44C C67U,1700 ± 200
4,G44U,2040 ± 470
5,U45A U55A A64G,225 ± 200
6,U45C U46G,2110 ± 1100
7,U45G U65G G66U U69C,8560 ± 7400
8,U46C C71A,811 ± 130
9,U46G C70U,829 ± 620
10,U46G U56A,1180 ± 860
11,U46G U65G,2130 ± 380
12,U47A A48C,4260 ± 3900
13,U47A U56C,3940 ± 1500
14,U47C A53G,3040 ± 2100
15,U47C U65G,3840 ± 610
16,U47G A52U,1950 ± 180
17,U47G C68U,938 ± 860
18,U47G C71U,369 ± 300
19,U47G U54C,2920 ± 2400
20,A48G C67A,10700 ± 550
21,U49G U55A,2740 ± 370
22,C50U U65G,2490 ± 2000
23,G51A C71A,105 ± 32
24,A52G,4410 ± 790
25,A52G U56G,7880 ± 6900
26,A52U C70U,3490 ± 1100
27,A53C G66C,2510 ± 780

# Some of the entries above in a different format:
row | Variant | KM [µM]
5 | U45A U55A A64G | 225 ± 200
6 | U45C U46G | 2110 ± 1100
7 | U45G U65G G66U U69C | 8560 ± 7400
8 | U46C C71A | 811 ± 130
9 | U46G C70U | 829 ± 620

# (listing goes on)

row,Variant,KM [µM]
1,A53G G66A,2350 ± 1400
2,A53U C67U,270 ± 240
3,A53U C68U,3820 ± 3400
4,A53U G66A,2370 ± 1000
5,A53U U56G,1540 ± 1500
6,U54A U65A,4300 ± 1100
7,U54C C70U,507 ± 130
8,U54C C71U,371 ± 340
9,U54C U55G,1460 ± 1200
10,U54G U56A,20500 ± 16000
11,U55A C67U,3030 ± 2000
12,U55A U56C,12200 ± 10000
13,U55A U56G,3170 ± 2300
14,U55A U57G,13300 ± 12000
15,U55G,2390 ± 240
16,U55G C70A,148 ± 85
17,U56A C67U,457 ± 430
18,U56G C71U,839 ± 700
19,U56G U57A,10500 ± 11000
20,A64U U69C,1050 ± 310
21,U65G C67A,10300 ± 8200
22,G66A C70A,565 ± 560
23,C68U U69C,2850 ± 730
24,U69G,535 ± 470
25,A72C,735 ± 670
26,U2A G29U,2460 ± 1300

# Variants of: B1
# Test: self-cleavage kobs at 10000 uM GlcN6P; higher = faster cleavage; RNA array
# Details: with glucosamine-6-phosphate
# Outline: as §1
row,Variant,self-cleavage kobs at 10000 uM GlcN6P [s⁻¹]
1,G44C U46C,2.34e-05 ± 2.2e-05
2,U46G G51U U56G U69G,2.58e-05 ± 1.7e-05
3,U47G A64G C70G,3.51e-05 ± 1.8e-05
4,U47G C50A,2.33e-05 ± 2.2e-05
5,C50G G59U,1.78e-05 ± 1.2e-05
6,C50U U54C,3.43e-05 ± 1.8e-05
7,G59U U69C,2.65e-05 ± 1.5e-05
8,C61G C70G C71G,3e-05 ± 1.7e-05

# Variants of: B1
# Test: self-cleavage kobs at 40 uM GlcN6P; higher = faster cleavage; RNA array
# Details: with glucosamine-6-phosphate
# Outline: as §1
row,Variant,self-cleavage kobs at 40 uM GlcN6P [s⁻¹]
1,G44U,< 1e-05
2,U45G U47G,0.000452 ± 0.00023
3,U46C C71A,2.65e-05 ± 1.5e-05
4,U46G G51U U56G U69G,2.64e-05 ± 2.3e-05
5,U47A U56C,3.58e-05 ± 1.8e-05
6,U49G C50G G63C U69C,3.7e-05 ± 2.2e-05
7,U49G U55A,3.56e-05 ± 2.1e-05
8,C50G G59U,2.01e-05 ± 1.4e-05
9,A52G U56G,2.83e-05 ± 1.6e-05
10,U55G U69G,2.63e-05 ± 2.5e-05
11,C61G C70G C71G,2.95e-05 ± 2.1e-05

# Variants of: B1
# Test: self-cleavage kobs at 640 uM GlcN6P; higher = faster cleavage; RNA array
# Details: with glucosamine-6-phosphate
# Outline: as §1
row,Variant,self-cleavage kobs at 640 uM GlcN6P [s⁻¹]
1,U46C C68A,2e-05 ± 1.7e-05
2,U47A C50U,3.42e-05 ± 2.1e-05
3,U47G A64G C70G,4.99e-05 ± 2.5e-05
4,C50U U54C,2.18e-05 ± 2.1e-05
5,C61G C68G,2.55e-05 ± 1.4e-05

# Variants of: B1
# Test: self-cleavage kobs at 160 uM GlcN6P; higher = faster cleavage; RNA array
# Details: with glucosamine-6-phosphate
# Outline: as §1
row,Variant,self-cleavage kobs at 160 uM GlcN6P [s⁻¹]
1,U46G G51U U56G U69G,3.32e-05 ± 2.2e-05
2,U47C U65G,0.000193 ± 0.00012
3,A48G C68G,0.000518 ± 0.00027
4,C50U C67A,1.94e-05 ± 1.9e-05
5,C50U C70U C71A,3.21e-05 ± 2e-05
6,A52G U56G,2.46e-05 ± 1.5e-05
7,A52U C70U,2.11e-05 ± 1.2e-05
8,U54A U65A,0.000233 ± 0.00012
9,U56G U57A,2.64e-05 ± 2.1e-05
10,U57G C67G,6.68e-05 ± 3.4e-05

# Part of the list above, reformatted.
row | Variant | self-cleavage kobs at 160 uM GlcN6P [s⁻¹]
3 | A48G C68G | 0.000518 ± 0.00027
4 | C50U C67A | 1.94e-05 ± 1.9e-05
5 | C50U C70U C71A | 3.21e-05 ± 2e-05
6 | A52G U56G | 2.46e-05 ± 1.5e-05
7 | A52U C70U | 2.11e-05 ± 1.2e-05

# Variants of: B1
# Test: self-cleavage kobs at 2500 uM GlcN6P; higher = faster cleavage; RNA array
# Details: with glucosamine-6-phosphate
# Outline: as §1
row,Variant,self-cleavage kobs at 2500 uM GlcN6P [s⁻¹]
1,U46G U56A,0.000471 ± 0.00024
2,U47A C50U,2.01e-05 ± 1.1e-05
3,U47G A64G C70G,2.35e-05 ± 1.6e-05
4,A48G C67A,1.36e-05 ± 1.3e-05
5,A48G C68A,1.97e-05 ± 1.4e-05
6,U49G C50G G63C U69C,4.92e-05 ± 3.2e-05
7,C50U U54C,1.7e-05 ± 9.3e-06
8,U54C C70U,0.00383 ± 0.0025
9,U55A C67U,0.0527 ± 0.037
10,U57G C67G,4.17e-05 ± 2.1e-05
11,C58G C68A,2.56e-05 ± 1.9e-05
12,G59C C68G,3.38e-05 ± 2.1e-05
13,G63C U69G,2.68e-05 ± 2e-05
14,A64U U69C,3.85e-05 ± 2.2e-05
